Assay results taken from PubChem BioAssay AID1688 (National Center for Advancing Translational Sciences (NCATS), 2009).
Among all 220,000 compounds or so, about 2,400 (1.1%) were called active. This list was built around the results that the source calls inconclusive (neither active nor inactive); the mix of calls is not that of the screen. Calls come from the whole dose curve; as a rule, active = well fitted inhibition curve with a large enough effect; inconclusive = small, poorly fitted or top-dose-only effect, or effect the other way; inactive = no such curve, though single readings can be large or run the other way. Where the call is inconclusive, the potency comes from a doubtful curve fit.

Experiment: qHTS Multiplex Assay to Identify Dual Action Probes in a Cell Model of Huntington: Aggregate Formation (GFP); note: nearly all actives have a fitted effect of over 60% in size
Settings: PC12 HttQ103-GFP aggregates, Acumen cytometry, 40 h; activity change, negative = inhibition: at 46.1 µM (top of the series) unless noted
Outline: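 Aggregates are detected as GFP objects 1–25 µm with signal 6 STDEV over background in lysates of induced PC12 cells. These carry Huntingtin exon 1 with 103 glutamines fused to GFP under an ecdysone promoter; compounds titrated.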
% is set by controls: 0 for no effect and ±100 for the full control effect; potency is the fitted concentration of half-maximal effect.

Question: Which activity change, negative = inhibition does the source give for `NS(=O)(=O)c1ccc(CCNCC(=O)N2CCC(Cc3ccccc3)CC2)cc1` here?
Answer: inactive: 10.8% [at 9.22 µM]

Question: With `O=C(c1ccco1)N1CCN(C(c2ccc(Cl)cc2)c2nnnn2Cc2ccccc2)CC1` (stereo not given) as the compound, how does the Potency read?
Answer: inconclusive: 35.5 µM [inhibitor, single point]

Question: Which Potency does the source give for `CCCc1cc(N2CCCC2)n2nc(C)c(-c3ccccc3)c2n1` here?
Answer: inconclusive: 11.2 µM [inhibitor, partial curve]

Question: For `COCCNS(=O)(=O)c1cc(C(=O)O)ccc1OC`, which Potency is on record?
Answer: inactive

Question: For `CCOc1nc(NCCO)nc(NCCC2=CCCCC2)n1`, which Potency is on record?
Answer: inactive

Question: Which activity change, negative = inhibition does the source give for `CN1CCN(c2ccc(S(=O)(=O)N3CCCCC3)cn2)CC1` here?
Answer: inactive: 7% [at 9.22 µM]

Question: With `NS(=O)(=O)c1ccc(CCNC(=O)/C=C/c2ccc([N+](=O)[O-])cc2)cc1` as the compound, how does the Potency read?
Answer: inactive

Question: For `Cc1c(C(=O)N2CCN(C)CC2)oc2c1C(=O)CC(C)(C)C2`, which Potency is on record?
Answer: inactive

Question: Which Potency does the source give for `Cc1ccc(-c2ccc(C3C(C#N)=C(N)Oc4n[nH]c(C)c43)o2)cc1` (stereo not given) here?
Answer: inconclusive: 35.5 µM [inhibitor, single point]

Question: Which Potency does the source give for `O=c1cc(CSc2nnc(COc3ccc(Cl)cc3)o2)c2ccccc2[nH]1` here?
Answer: inactive

Question: Which Potency does the source give for `Clc1cccc(CN2CCC(Cc3ccccc3)CC2)c1` here?
Answer: inconclusive: 35.5 µM [inhibitor, single point]

Question: For `O=C(NCC(=O)N(c1cccnc1)C(C(=O)NC1CCCC1)c1ccc(F)cc1)c1ccco1` (stereo not given), which activity change, negative = inhibition is on record?
Answer: inactive: 3.5% [at 9.22 µM]

Question: For `CCC1(CC)NC(=O)N(CC(=O)NCc2ccc3c(c2)OCO3)C1=O`, which Potency is on record?
Answer: inconclusive: 0.562 µM [inhibitor, full curve, poor fit]

Question: With `Cn1c(/C=N/NC(=O)c2ccccc2)nc2ccccc21` as the compound, how does the Potency read?
Answer: inconclusive: 11.2 µM [inhibitor, partial curve]

Question: Which Potency does the source give for `O=C(NN1CCCCC1)c1ccccc1` here?
Answer: inconclusive: 7.94 µM [activator, partial curve, poor fit]

Question: Which Potency does the source give for `CC(C)Cc1nc(Nc2ccc(S(=O)(=O)N3CCCC3)cc2)c2nnn(Cc3ccccc3)c2n1` here?
Answer: inconclusive: 17.8 µM [inhibitor, single point]

Question: Which Potency does the source give for `Nc1ccc(-n2nncc2-c2ccc(Cl)cc2)cc1` here?
Answer: inconclusive: 0.501 µM [activator, full curve, poor fit]

Question: For `O=C(Nc1ccccc1OC(F)F)c1ccc(F)cc1`, which Potency is on record?
Answer: inconclusive: 5.62 µM [inhibitor, single point]

Question: With `Cc1cccc(N(C)S(=O)(=O)c2ccc3[nH]c(=O)c(=O)[nH]c3c2)c1` as the compound, how does the Potency read?
Answer: inactive

Question: With `Cc1nn(Cc2c(F)c(F)c(F)c(F)c2F)c(C)c1NC(=O)c1ccc(COc2ccccc2Cl)o1` as the compound, how does the Potency read?
Answer: inconclusive: 35.5 µM [inhibitor, single point]

Question: With `Cc1oc(/C=N/NS(=O)(=O)c2ccccc2)cc1Br` as the compound, how does the Potency read?
Answer: inconclusive: 31.6 µM [activator, single point]

Question: For `Cc1ccc(N(CC(O)CON=C2c3ccccc3-c3ccccc32)S(C)(=O)=O)cc1` (stereo not given), which Potency is on record?
Answer: inconclusive: 35.5 µM [inhibitor, single point]

Question: Which Potency does the source give for `Cc1nc(NCCN2CCOCC2)c2oc3ccccc3c2n1` here?
Answer: inactive

Question: Which Potency does the source give for `O=C1NC2(CCCc3ccccc32)C(=O)N1CCOc1ccc(Br)cc1` (stereo not given) here?
Answer: inconclusive: 15.8 µM [inhibitor, partial curve]

Question: For `O=C(Nc1nnc(-c2ccco2)o1)c1cccc(N2C(=O)CCC2=O)c1`, which Potency is on record?
Answer: inconclusive: 3.16 µM [activator, partial curve, poor fit]

Question: Which Potency does the source give for `CCOC(=O)c1cc(-c2ccccc2)n(CC(=O)Nc2ccc(OC)c(OC)c2)c1C` here?
Answer: inactive

Question: For `CCCCc1ccc(Nc2nc(CCC)cc(=O)[nH]2)cc1`, which Potency is on record?
Answer: active: 35.5 µM

Question: With `CC(C)(C)c1ccc(C(=O)NNc2ccc(F)cc2F)cc1` as the compound, how does the activity change, negative = inhibition read?
Answer: inactive: 4.94% [at 9.22 µM]

Question: For `CSc1ccc(C(=S)N2CCN(CCO)CC2)cc1`, which Potency is on record?
Answer: inactive

Question: For `CCc1ccc(C(=O)Cn2ncc(Cl)c(Cl)c2=O)cc1`, which Potency is on record?
Answer: inconclusive: 35.5 µM [inhibitor, single point]

Question: With `COc1ccc2nc(NC(=O)c3cccc(-c4cc5ccccc5oc4=O)c3)sc2c1` as the compound, how does the Potency read?
Answer: inconclusive: 11.2 µM [inhibitor, partial curve]

Question: For `CCOC(=O)c1sc(NC(=O)CSc2n[nH]c(-c3ccc(Cl)cc3Cl)n2)c(C#N)c1C`, which Potency is on record?
Answer: active: 12.6 µM

Question: With `CN(C)/C(Cn1cncn1)=C1/N=C(c2c(F)cccc2F)OC1=O` as the compound, how does the activity change, negative = inhibition read?
Answer: inactive: 3.31% [at 9.22 µM]

Question: For `O=C(COc1ccc2ccccc2c1)NCCNC(=O)COc1ccc2ccccc2c1`, which Potency is on record?
Answer: inconclusive: 3.98 µM [activator, single point]

Question: Which Potency does the source give for `O=C(c1ccc(CSc2nc3ccncc3[nH]2)cc1)N1CCCCC1` here?
Answer: inactive

Question: With `COc1ccc2oc3cc(C)[n+]([O-])c(-c4ccc(Br)cc4)c3c2c1` as the compound, how does the Potency read?
Answer: inactive

Question: For `Cc1csc(NC(=O)CSc2nc(C(C)C)nc3c2c(=O)n(C)c(=O)n3C)n1`, which Potency is on record?
Answer: inconclusive: 11.2 µM [inhibitor, partial curve]

Question: Which Potency does the source give for `CC(OC(=O)c1ccc([N+](=O)[O-])s1)C(=O)Nc1ncc(Cl)cc1Cl` (stereo not given) here?
Answer: inactive

Question: Which Potency does the source give for `CCCCCCC(=O)N/N=C/Cc1ccccc1` here?
Answer: inactive

Question: For `C=CCn1c(SCc2cc(=O)n3ccsc3n2)nc2scc(C3CC3)c2c1=O`, which Potency is on record?
Answer: inconclusive: 5.62 µM [inhibitor, single point]

Question: For `CCC(=O)N=c1n(C)c2ccccc2n1CCOc1ccccc1`, which Potency is on record?
Answer: inactive

Question: For `Cn1c(C(=O)Nc2ccc3c(c2)OCO3)cc2c(=O)n(C)c3ccccc3c21`, which Potency is on record?
Answer: inconclusive: 25.1 µM [activator, single point]

Question: With `O=C(NC1CCCCC1)C(c1ccc(F)cc1)N(Cc1cccs1)C(=O)CN1C(=O)c2ccccc2S1(=O)=O` (stereo not given) as the compound, how does the Potency read?
Answer: inconclusive: 28.2 µM [activator, single point]

Question: Which Potency does the source give for `c1ccc2c(c1)CSc1sccc1C2=C1CCNCC1` here?
Answer: inconclusive: 3.16 µM [inhibitor, single point]

Question: For `O=C(O)c1cn(C2CC2)c2cc(N3CCN(S(=O)(=O)c4ccc5c(c4)OCCO5)CC3)c(F)cc2c1=O`, which Potency is on record?
Answer: inconclusive: 15.8 µM [inhibitor, single point]

Question: Which Potency does the source give for `Cc1ccnc(N2CCN(C(=O)CSc3nc4ccccc4nc3N3CCCCC3)CC2)c1` here?
Answer: inconclusive: 22.4 µM [inhibitor, single point]

Question: Which Potency does the source give for `COc1ccccc1-c1n[nH]c2c1[C@H](C)CC[C@H]2C(C)C` here?
Answer: inconclusive: 20 µM [inhibitor, single point]

Question: With `COCCNC(=O)C1CCC(Cn2c(=S)[nH]c3ccccc3c2=O)CC1` (stereo not given) as the compound, how does the Potency read?
Answer: inactive

Question: Which Potency does the source give for `O=C1c2oc3ccccc3c(=O)c2C(c2cccc(F)c2)N1CCCO` (stereo not given) here?
Answer: inconclusive: 0.708 µM [activator, single point]

Question: Which Potency does the source give for `Cc1cc(C)n(-c2nc(C)nc(NCc3ccccc3)n2)n1` here?
Answer: inconclusive: 7.08 µM [activator, full curve, poor fit]

Question: With `CC(Nc1cccc2ccccc12)C(=O)N/N=C/c1ccc([N+](=O)[O-])cc1` (stereo not given) as the compound, how does the Potency read?
Answer: inconclusive: 5.62 µM [inhibitor, single point]

Question: With `Cc1ccc(Cn2nnc3c(=O)[nH]c(C4CCN(S(=O)(=O)c5cc(C)ccc5C)CC4)nc32)cc1` as the compound, how does the Potency read?
Answer: inconclusive: 35.5 µM [inhibitor, single point]

Question: Which Potency does the source give for `COc1ccc(-c2cc(=Nc3c(C)n(C)n(-c4ccccc4)c3=O)c3ccccc3o2)cc1` here?
Answer: inconclusive: 35.5 µM [inhibitor, partial curve, poor fit]

Question: For `O=C(O)C(C(=O)/C=C/c1ccco1)=C1SCCS1`, which Potency is on record?
Answer: inconclusive: 25.1 µM [activator, single point]

Question: With `CCCS/C(N)=N/N=C/c1ccccc1O` as the compound, how does the Potency read?
Answer: inconclusive: 22.4 µM [inhibitor, single point]

Question: For `Cc1cccn2c(=O)c(C=O)c(N3CCCCCC3)nc12`, which Potency is on record?
Answer: inconclusive: 1.78 µM [activator, partial curve]

Question: With `CCN(CCCNS(=O)(=O)c1ccc2c(c1)CCN2C(C)=O)c1cccc(C)c1` as the compound, how does the Potency read?
Answer: inconclusive: 7.08 µM [inhibitor, partial curve]

Question: Which Potency does the source give for `COc1ccc(-c2nn(C)c(=O)c3ccccc23)cc1CNS(C)(=O)=O` here?
Answer: inconclusive: 0.562 µM [inhibitor, full curve, poor fit]

Question: With `COc1ccc(-c2csc(NC(=O)COc3ccc(N(C)S(=O)(=O)c4ccc(C)cc4)cc3)n2)cc1` as the compound, how does the Potency read?
Answer: inactive

Question: For `O=c1c2ccccc2nc2c3ccccc3c(NCCN3CCOCC3)nn12`, which Potency is on record?
Answer: inconclusive: 35.5 µM [inhibitor, single point]

Question: For `CCC(c1nnnn1Cc1ccco1)N(CCc1ccccc1)Cc1cc2cc(C)ccc2[nH]c1=O` (stereo not given), which Potency is on record?
Answer: active: 28.2 µM

Question: With `O=C(Nc1ccc(Cl)cc1)/C(=C/c1ccc([N+](=O)[O-])cc1)c1nc2ccccc2s1` as the compound, how does the Potency read?
Answer: active: 7.08 µM

Question: Which Potency does the source give for `COc1cccc(/C=N/NC(N)=S)c1OCc1ccccc1Cl` here?
Answer: inconclusive: 1.78 µM [activator, partial curve]

Question: For `Cc1cccc(N2CCN(C(=O)CCS(=O)(=O)c3ccc(Br)cc3)CC2C)c1` (stereo not given), which Potency is on record?
Answer: inactive

Question: Which Potency does the source give for `CN1C(=O)C(O)(CC(=O)c2ccc3c(c2)OCO3)c2ccccc21` (stereo not given) here?
Answer: inactive

Question: Which Potency does the source give for `CC(NC(=O)c1sc2cc([N+](=O)[O-])ccc2c1Cl)C(C)(C)C` (stereo not given) here?
Answer: inactive

Question: With `Cc1c(NC(=O)c2ccco2)cccc1-c1nc2cccnc2s1` as the compound, how does the Potency read?
Answer: active: 10 µM

Question: For `O=C(NC1CCCc2ccccc21)c1ccccc1` (stereo not given), which Potency is on record?
Answer: inconclusive: 35.5 µM [inhibitor, single point]

Question: With `CC1(C)C(=O)OC(C(=O)c2ccccc2)C(C)(C)C1=O` (stereo not given) as the compound, how does the Potency read?
Answer: inconclusive: 2.51 µM [activator, full curve, poor fit]

Question: Which Potency does the source give for `CCn1c(=O)cc(OCC(=O)N2CCN(C(=O)c3ccco3)CC2)c2ccccc21` here?
Answer: inconclusive: 15.8 µM [activator, single point]
